Measured values as given in patent US8383814B2, “Substituted tetrahydropyran spiro pyrrolidinone and piperidinone, preparation and therapeutic use thereof” (Sanofi, priority 2008, dated 2013).
At least one compound was matched to its structure with a doubt left.

Test system: rhesus H3 receptor
Experiment: GTPγS radioligand binding assay: inhibition of rhesus H3 constitutive functional activity in cell membranes (inverse agonism)
Format: biochemical, rhesus monkey (Macacca Mulatta)
Design: concentration or dose not given beside the values
Conditions: negative value = below basal level
Procedure: Rhesus H3 membranes were prepared from the Flp-In T-REx 293 Cell Line (Invitrogen) stably transfected with pcDNA5/FRT/TO (Invitrogen) containing the rhesus monkey (Macacca Mulatta) 445 amino acid H3 receptor. (Genbank #AY231164). Stably transfected cultures were amplified in tissue culture flasks by standard tissue culture methods and induced to express rhesus H3 by exposure to 500 ng/ml tetracycline (Cellgro) for 24 hours. After induction, cells were dissociated from flasks utilizing Cell Stripper (Cellgro). Cells were centrifuged (1K×g, 5 min) and pellet frozen in an ethanol-dry ice bath to disrupt cell membranes. Frozen cell pellet was re-suspended in 5 mM HEPES (pH 7.4, Invitrogen) at 10 ml/1000 cm2 of harvested cells. The cell suspension was drawn through an 18 gauge needle (2-3×) followed by a 23 gauge needle (2-3×) to further disrupt cell membranes. The cell suspension was centrifuged (40K×g, 30 min). Cell membrane pellet was re-suspended in 5 mM HEPES (pH 7.4, Invitrogen) at a final protein concentration of 10 mg/ml. Rhesus H3 membranes were stored under liquid nitrogen prior to use in [3H]-Methylhistamine and GTP S radioligand binding assays.

CCc1cc(N2CCC(N3CCC[C@@H]3C)C2)ccc1N1CCC2(CCOCC2)C1=O (stereo partly shown) [Example 26]
Inverse Agonism: % inhibition of Basal GTPγS binding in Rhesus H3: −14%
